Assay results taken from PubChem BioAssay AID504834 (National Center for Advancing Translational Sciences (NCATS), 2011).
The whole screen tested about 320,000 compounds, of which about 22,000 (6.9%) were called active. The inconclusive results got no clear call from the source; some entries with a clear call stand among them for comparison. Calls come from the whole dose curve; as a rule, active = well fitted inhibition curve with a large enough effect; inconclusive = small, poorly fitted or top-dose-only effect, or another doubt; inactive = no such curve, though single readings can be large or run the other way. Where the call is inconclusive, the potency comes from a doubtful curve fit.

Test: Primary qHTS for delayed death inhibitors of the malarial parasite plastid, 96 hour incubation
Settings: P. falciparum luciferase reporter growth; series mostly up to 28.7 µM; activity change, negative = inhibition: at the top concentration
How it was run: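 Parasite growth measured via integrated firefly luciferase reporter in P. falciparum. Infected erythrocytes at 2% hematocrit, 0.05% parasitemia final were treated 96 hours at 37 C under 5% CO2, and luminescence was read.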
% is set by controls: 0 for no effect and ±100 for the full control effect; potency is the fitted concentration of half-maximal effect.

| SMILES | Potency | activity change, negative = inhibition |
| --- | --- | --- |
| CC(=O)N(Cc1ccc(F)cc1)C1=C(NCc2ccccc2)C(=O)c2ccccc2C1=O | inconclusive: 0.0465 µM [inhibitor, full curve, poor fit] | – |
| CC1(C)C(=O)N(OCc2ccccc2)C(C)(C)C(=O)N1OCc1ccccc1 | inconclusive: 4.15 µM [inhibitor, partial curve, poor fit] | – |
| O=C(CSc1nc2ccccc2c(=O)n1CC1CCCCC1)N1CCOCC1 | active: 13.1 µM | – |
| CCOC(=O)N1CCN(C(=O)CSCc2ccccc2)CC1 | inconclusive: 14.7 µM [inhibitor, single point] | – |
| CCCCN(C)C(=O)C1CCN(Cc2cccc(OCc3ccccc3)c2)CC1 | – | inactive: 0.702% |
| COc1ccc(C(OCC(O)CNC(C)c2ccccc2)c2ccc(OC)cc2)cc1 (stereo unspecified) | inconclusive: 4.15 µM [inhibitor, partial curve] | – |
| O=C(CN1C(=O)C(c2ccccc2)Oc2cccnc21)NCc1ccccc1F (stereo unspecified) | active: 9.28 µM | – |
| CC1CC(NC(=O)Cc2ccc(Br)cc2)CC(C)(C)C1 (stereo unspecified) | inconclusive: 18.5 µM [inhibitor, single point] | – |
| C/C(=N\NC(=O)c1ccc(-n2cnnn2)cc1)c1ccc(C)cc1 | – | inactive: -17.7% |
| C[C@]12CC[C@@H]3c4ccc(OC(=O)c5ccccc5)cc4CC[C@H]3[C@@H]1CC[C@@H]2O | active: 8.28 µM | – |
| O=C(c1ccc2c(c1)OCO2)N(c1ccc(Br)cc1)C1C=CS(=O)(=O)C1 (stereo unspecified) | – | inactive: 4.26% |
| Cc1csc2c(=O)[nH]cnc12 | inconclusive: 4.15 µM [inhibitor, single point] | – |
| CN(C(=O)COC(=O)C1CCN(S(=O)(=O)c2c(Cl)cccc2Cl)CC1)c1ccccc1 | inconclusive: 10.4 µM [inhibitor, partial curve, poor fit] | – |
| O=C(CN1C(=O)/C(=C\c2cccc(Cl)c2)Sc2ccccc21)NCCCN1CCOCC1 | inconclusive: 18.5 µM [inhibitor, single point] | – |
| COc1ccccc1CNC(=O)CN(C)S(=O)(=O)c1ccc2c(c1)c(=O)n(C)c(=O)n2C | – | inactive: 36.6% |
| Cc1cnc(NC2=NCCC2)s1 | – | inactive: -28.1% [at 5.75 µM] |
| Cc1ccc(NC(=S)Nc2cccnc2)c(S(=O)(=O)N2CCCCC2)c1 | inconclusive: 0.208 µM [inhibitor, full curve, poor fit] | – |
| COc1ccc(S(=O)(=O)N2CCN(S(=O)(=O)c3ccc(OC)cc3)CC2)cc1 | inconclusive: 13.1 µM [activator, partial curve] | – |
| CCc1c(C)nc2c(-c3ccccc3)c(C)[nH]n2c1=O | – | inactive: -20.4% |
| c1ccc(Cc2nnc(Sc3ccccc3)c3ccccc23)cc1 | inconclusive: 18.5 µM [inhibitor, partial curve, poor fit] | – |
| O=C(NCC1CCN(Cc2ccc(F)cc2)CC1)C1CCCN(c2ncnc3c2nc2n3CCCCC2)C1 (stereo unspecified) | active: 9.28 µM | – |
| CC(=O)Nc1ccc(NCC(=O)c2ccccc2)cc1 | inconclusive: 10.4 µM [inhibitor, single point] | – |
| CC(=O)c1cccc(S(=O)(=O)N(CCCO)Cc2cc3ccc(C)cc3[nH]c2=O)c1 | – | inactive: -21.9% |
| CN(C)c1ccc(/C=C/c2cc[n+](C)c3ccccc23)cc1 | inconclusive: 0.0928 µM [inhibitor, full curve, poor fit] | – |

| SMILES | Potency | activity change, negative = inhibition |
| --- | --- | --- |
| COc1ccccc1NC(=S)NC1CCCCCCCCCCC1 | inconclusive: 1.47 µM [inhibitor, partial curve, poor fit] | – |
| CCN(CC)CCC(=O)N1c2ccccc2CCc2ccc(NC(=O)OC(C)C)cc21 | inconclusive: 18.5 µM [inhibitor, single point] | – |
| O=C(c1cccs1)N1CCCC(c2nc3c(nnn3Cc3c(Cl)cccc3Cl)c(=O)[nH]2)C1 (stereo unspecified) | inconclusive: 13.1 µM [inhibitor, partial curve, poor fit] | – |
| COc1cc(-c2nc(C)c(C(C)=O)n2O)ccc1OCC(=O)Nc1ccc(Cl)cc1 | inconclusive: 13.1 µM [inhibitor, single point] | – |
| CCc1noc(C)c1C(=O)N1CCCSC1=Nc1ccccc1C(C)C | active: 6.57 µM | – |
| COc1ccccc1/C=C1\CCC(C2CCCC2)C1=O (stereo unspecified) | active: 14.7 µM | – |
| O=C(Oc1ccc(F)cc1)c1ccc2c(=O)n3c(nc2c1)CCC3 | – | inactive: 7.58% |
| Cc1ccc2nsnc2c1NC(=O)c1cncc(Br)c1 | – | inactive: 14.3% |
| CC(C)(CO)NS(=O)(=O)c1ccc2c(c1)oc(=O)c1cc(S(=O)(=O)NC(C)(C)CO)ccc12 | inconclusive: 0.828 µM [inhibitor, full curve] | – |
| CCC1=Nc2cc(C(=O)NCc3ccco3)ccc2Sc2ccc(C)cc21 | – | inactive: 25.3% |
| NC(=O)c1ccccc1NCC(=O)c1ccc(Cl)cc1 | inconclusive: 10.4 µM [inhibitor, single point] | – |
| COC(=O)c1ccc(/C=N/NC(=O)CC(=O)NC2CCCCC2)cc1 | – | inactive: 30.7% |
| COCc1cc(C)nc(SCc2nc3ccccc3c(=O)[nH]2)c1C#N | inconclusive: 0.262 µM [inhibitor, full curve, poor fit] | – |
| OCCC1CN(C/C(Cl)=C/c2ccccc2)CCN1C1CCCC1 (stereo unspecified) | inconclusive: 18.5 µM [inhibitor, single point] | – |
| O=C(OCc1nnc(-c2ccccc2)o1)c1ccc(Br)o1 | – | inactive: 0.683% |
| S=C(NCCNCc1ccccc1)NC1CCCCC1 | active: 4.65 µM | – |
| COc1ccc(CCC(=O)Nc2ccc(Cl)c(S(=O)(=O)N3CCCC3)c2)cc1 | inconclusive: 18.5 µM [inhibitor, single point] | – |
| CCOC(=O)C1CCCN(C(=O)C(=O)Nc2ccc3nc4n(c(=O)c3c2)CCCCC4)C1 (stereo unspecified) | – | inactive: 81.2% |
| CCCOc1ccccc1/C=C(\C#N)C(=O)Nc1cccc(C)n1 | inconclusive: 0.928 µM [inhibitor, partial curve, poor fit] | – |
| C[C@@]12CCC3[C@@](CCC4[C@@]3(C)CCC[C@@]4(C)C(=O)O)(CC1=O)C2 (stereo partly specified) | inconclusive: 13.1 µM [inhibitor, partial curve, poor fit] | – |
| Cc1ccc(-n2c(C)c3c(C)nnc(C)c3c2C)cc1C | inconclusive: 18.5 µM [inhibitor, single point] | – |
| CC(C)c1ccccc1-n1c(SCC(=O)N2CCc3ccccc3C2)nc2ccccc2c1=O | active: 5.86 µM | – |
| CCOC(=O)Cn1nnc2c(sc3nc4c(c(-c5ccc(Cl)cc5)c32)CCC4)c1=O | inconclusive: 10.4 µM [inhibitor, single point] | – |
| COc1cc(NC(=O)n2ncc3cc(Cl)ccc32)cc(OC)c1 | inconclusive: 18.5 µM [inhibitor, single point] | – |

4 compounds already listed, ordered by formula weight, descending.

| SMILES | Potency | activity change, negative = inhibition |
| --- | --- | --- |
| Cc1ccc(NC(=S)Nc2cccnc2)c(S(=O)(=O)N2CCCCC2)c1 | inconclusive: 0.208 µM [inhibitor, full curve, poor fit] | – |
| c1ccc(Cc2nnc(Sc3ccccc3)c3ccccc23)cc1 | inconclusive: 18.5 µM [inhibitor, partial curve, poor fit] | – |
| S=C(NCCNCc1ccccc1)NC1CCCCC1 | active: 4.65 µM | – |
| Cc1cnc(NC2=NCCC2)s1 | – | inactive: -28.1% [at 5.75 µM] |

Going on with the list.

| SMILES | Potency | activity change, negative = inhibition |
| --- | --- | --- |
| O=C(Nc1nccs1)c1ccc(N2C(=O)[C@@H]3[C@H](C2=O)[C@H]2C=C[C@@H]3C2)cc1 | inconclusive: 1.85 µM [inhibitor, full curve] | – |
| NC(=O)c1c(NC(=O)c2cccnc2)sc2c1CCCC2 | inconclusive: 18.5 µM [inhibitor, single point] | – |
| Cc1ccnc(N/C=C(\C#N)c2nc(-c3cccc(Br)c3)cs2)c1 | active: 2.94 µM | – |
| CCCc1nc2ccc(NC(C)=O)cc2c(=O)n1Cc1ccc(Cl)cc1 | – | inactive: 36.1% |
| COC(=O)C1=C(C)NC2=C(C(=O)CC(C)(C)C2)C1c1ccsc1 (stereo unspecified) | inconclusive: 0.329 µM [inhibitor, full curve, poor fit] | – |
| O=C(N/N=C/c1ccccc1F)NC12CC3CC(CC(C3)C1)C2 | inconclusive: 18.5 µM [inhibitor, single point] | – |
| Cc1ccc(C)c(NC(NC(=O)c2ccccn2)C(Cl)(Cl)Cl)c1 (stereo unspecified) | inconclusive: 10.4 µM [inhibitor, single point] | – |
| O=C(NCc1cccnc1)c1ccccc1NS(=O)(=O)c1ccc(F)cc1F | – | inactive: 4.49% |
| CSc1nc(S(=O)(=O)c2ccc(C)cc2)c(Cl)s1 | inconclusive: 18.5 µM [inhibitor, single point] | – |
| CC(OC(=O)Cc1c(F)cccc1Cl)C(=O)NCCC1=CCCCC1 (stereo unspecified) | – | inactive: 0.206% |
| COc1cc(/C=N/c2oc(C)c(C)c2C#N)cc(Br)c1O | – | inactive: -28.4% |
| O=C(O)CCC(=O)N1CCN(c2nc(-c3ccccc3Cl)c3cc(Br)ccc3n2)CC1 | inconclusive: 4.15 µM [inhibitor, single point] | – |
| Cc1ccc(-c2[nH]ncc2/C=N/n2c(COc3ccccc3)nc3ccccc3c2=O)cc1 | active: 10.4 µM | – |
| CCCCCOC(=O)C1[C@H]2C(=O)N(c3ccccc3CC)C[C@]23C=C[C@H]1O3 (stereo partly specified) | inconclusive: 10.4 µM [inhibitor, single point] | – |
| CC(C)Oc1ccccc1OCCCOc1cccc2cccnc12 | – | inactive: -22.4% |
| Cc1ccc2c(c1)N(C(=O)CCC(=O)Nc1ccccc1Cl)CC(C)O2 (stereo unspecified) | inconclusive: 18.5 µM [inhibitor, single point] | – |
| COc1ccc(-n2c(SCC(=O)NCC3CCCO3)nc3c([nH]c4ccccc43)c2=O)cc1OC (stereo unspecified) | inconclusive: 10.4 µM [inhibitor, single point] | – |
| COc1nccnc1NS(=O)(=O)c1ccc(NC(=S)NC(=O)c2cccnc2)cc1 | inconclusive: 14.7 µM [inhibitor, single point] | – |
| COc1ccc(CCNC(=O)CCCCCN2C(=O)c3ccccc3C2=O)cc1 | inconclusive: 0.465 µM [inhibitor, full curve, poor fit] | – |
| CCOC(=O)N1CCC(Nc2c(NCCCOC)c(=O)c2=O)CC1 | – | inactive: 24.5% |
| Cc1ccc(N2CCN(c3ccc(C)cc3)C2c2cccnc2)cc1 | active: 1.31 µM | – |
| COc1cccc(CNC(=O)CN2C(=O)COc3ccc(S(=O)(=O)N4CCC(C)CC4)cc32)c1 | – | inactive: -7.74% |
| Clc1ccc(Nc2nc(-c3cccnc3)cs2)cc1 | – | inactive: 10.4% |
